PubChem BioAssay AID1224830, NIAID, 2016
The deposit covers about 18,000 reagents; below is a random part of them. About 2,900 of all reagents (16%) were called active. 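Calls are made per well; low scores hint the gene aids the LPS response, high scores that it dampens it.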 Repeated entries: four replicate wells of each siRNA pool.

Test: 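Genes whose knock-down alters the TNF-alpha reporter response to LPS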 (primary screen)
Cell system: human THP-1 monocytic leukaemia cells, TNF dual-luciferase reporter clone, PMA-differentiated to macrophage-like cells
Knock-down reagent: siRNA pool against human genes, 50 nM
Duration: LPS for 4 h, given about 3 days after siRNA transfection
Treatment: bacterial LPS (TLR4 ligand), 10 ng/ml
Measured: 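TNF firefly reporter luminescence divided by renilla, normalised to the plate median, then turned into a robust z-score for each replicate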
Scale: TNF reporter robust z-score: higher = stronger TNF reporter response to LPS
Call rule: 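Each well counts as active if its z-score is over 2.8 or under -1.5; controls are left without a call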

Target gene | TNF reporter robust z-score | outcome
ACSS3 (acyl-CoA synthetase short chain family member 3) | -0.5 | inactive
ACSS3 (acyl-CoA synthetase short chain family member 3) | -1.17 | inactive
ACSS3 (acyl-CoA synthetase short chain family member 3) | -0.69 | inactive
ACSS3 (acyl-CoA synthetase short chain family member 3) | -0.82 | inactive
BATF (basic leucine zipper ATF-like transcription factor) | -0.22 | inactive
BATF (basic leucine zipper ATF-like transcription factor) | -0.2 | inactive
BATF (basic leucine zipper ATF-like transcription factor) | 0.63 | inactive
BATF (basic leucine zipper ATF-like transcription factor) | 0.1 | inactive
CRIPT (CXXC repeat containing interactor of PDZ3 domain) | -0.18 | inactive
CRIPT (CXXC repeat containing interactor of PDZ3 domain) | 0.22 | inactive
CRIPT (CXXC repeat containing interactor of PDZ3 domain) | 0.48 | inactive
CRIPT (CXXC repeat containing interactor of PDZ3 domain) | -0.14 | inactive
DEF8 (differentially expressed in FDCP 8 homolog) | 0.73 | inactive
DEF8 (differentially expressed in FDCP 8 homolog) | -0.02 | inactive
DEF8 (differentially expressed in FDCP 8 homolog) | 0.02 | inactive
DEF8 (differentially expressed in FDCP 8 homolog) | -0.57 | inactive
CTBS (chitobiase) | 2.24 | inactive
CTBS (chitobiase) | 2.07 | inactive
CTBS (chitobiase) | 0.81 | inactive
CTBS (chitobiase) | 2.03 | inactive
LINC00452 (long independently transcribed non-coding RNA 452) | 0.42 | inactive
LINC00452 (long independently transcribed non-coding RNA 452) | 0.57 | inactive
LINC00452 (long independently transcribed non-coding RNA 452) | 1.1 | inactive
LINC00452 (long independently transcribed non-coding RNA 452) | 1.46 | inactive
RASSF3 (Ras association domain family member 3) | 1.94 | inactive
RASSF3 (Ras association domain family member 3) | 2.13 | inactive
RASSF3 (Ras association domain family member 3) | 1.29 | inactive
RASSF3 (Ras association domain family member 3) | 2.42 | inactive
YY1AP1 (YY1 associated protein 1) | 0.79 | inactive
YY1AP1 (YY1 associated protein 1) | 1.34 | inactive
YY1AP1 (YY1 associated protein 1) | 0.88 | inactive
YY1AP1 (YY1 associated protein 1) | 0.83 | inactive
PSMF1 (proteasome inhibitor subunit 1) | -0.76 | inactive
PSMF1 (proteasome inhibitor subunit 1) | -0.86 | inactive
PSMF1 (proteasome inhibitor subunit 1) | -1.13 | inactive
PSMF1 (proteasome inhibitor subunit 1) | -0.26 | inactive
CFAP45 (cilia and flagella associated protein 45) | 0.81 | inactive
CFAP45 (cilia and flagella associated protein 45) | -0.59 | inactive
CFAP45 (cilia and flagella associated protein 45) | -0.93 | inactive
CFAP45 (cilia and flagella associated protein 45) | -0.77 | inactive
CFAP45 (cilia and flagella associated protein 45) | 1.2 | inactive
CFAP45 (cilia and flagella associated protein 45) | 1.81 | inactive
CFAP45 (cilia and flagella associated protein 45) | 1.12 | inactive
CFAP45 (cilia and flagella associated protein 45) | 1.49 | inactive
YWHAE | 1.49 | inactive
YWHAE | 0.6 | inactive
YWHAE | 0.87 | inactive
LRP1B (LDL receptor related protein 1B) | -1.05 | inactive
LRP1B (LDL receptor related protein 1B) | -0.31 | inactive
LRP1B (LDL receptor related protein 1B) | -1.13 | inactive
LRP1B (LDL receptor related protein 1B) | -0.5 | inactive
VPS13C (vacuolar protein sorting 13 homolog C) | 2.14 | inactive
VPS13C (vacuolar protein sorting 13 homolog C) | 1.63 | inactive
VPS13C (vacuolar protein sorting 13 homolog C) | 1.48 | inactive
VPS13C (vacuolar protein sorting 13 homolog C) | 2.46 | inactive
ATOH7 (atonal bHLH transcription factor 7) | -0.68 | inactive
ATOH7 (atonal bHLH transcription factor 7) | -0.2 | inactive
ATOH7 (atonal bHLH transcription factor 7) | -1.16 | inactive
ATOH7 (atonal bHLH transcription factor 7) | 0.86 | inactive
MET (MET proto-oncogene, receptor tyrosine kinase) | -0.54 | inactive
MET (MET proto-oncogene, receptor tyrosine kinase) | -0.28 | inactive
MET (MET proto-oncogene, receptor tyrosine kinase) | 0.68 | inactive
MET (MET proto-oncogene, receptor tyrosine kinase) | -0.15 | inactive
ANGPTL6 (angiopoietin like 6) | -0.17 | inactive
ANGPTL6 (angiopoietin like 6) | -0.6 | inactive
ANGPTL6 (angiopoietin like 6) | -0.52 | inactive
ANGPTL6 (angiopoietin like 6) | 1.05 | inactive
GUCY2C (guanylate cyclase 2C) | -0.28 | inactive
GUCY2C (guanylate cyclase 2C) | 1.67 | inactive
GUCY2C (guanylate cyclase 2C) | 0.62 | inactive
GUCY2C (guanylate cyclase 2C) | 0.99 | inactive
HAL (histidine ammonia-lyase) | 0.45 | inactive
HAL (histidine ammonia-lyase) | 1.18 | inactive
HAL (histidine ammonia-lyase) | 0.47 | inactive
HAL (histidine ammonia-lyase) | 0.02 | inactive
ELF4 (E74 like ETS transcription factor 4) | -1.41 | inactive
ELF4 (E74 like ETS transcription factor 4) | -1.68 | active
ELF4 (E74 like ETS transcription factor 4) | -0.82 | inactive
ELF4 (E74 like ETS transcription factor 4) | -0.92 | inactive
RCE1 (Ras converting CAAX endopeptidase 1) | -0.1 | inactive
RCE1 (Ras converting CAAX endopeptidase 1) | -0.95 | inactive
RCE1 (Ras converting CAAX endopeptidase 1) | -1.3 | inactive
RCE1 (Ras converting CAAX endopeptidase 1) | -0.61 | inactive
REPIN1 (replication initiator 1) | -1.28 | inactive
REPIN1 (replication initiator 1) | -0.74 | inactive
REPIN1 (replication initiator 1) | -1.16 | inactive
REPIN1 (replication initiator 1) | -1.17 | inactive
PLEKHA6 (pleckstrin homology domain containing A6) | -0.09 | inactive
PLEKHA6 (pleckstrin homology domain containing A6) | 1.32 | inactive
PLEKHA6 (pleckstrin homology domain containing A6) | -0.04 | inactive
PLEKHA6 (pleckstrin homology domain containing A6) | 1.81 | inactive
GP6 (glycoprotein VI platelet) | 0.78 | inactive
GP6 (glycoprotein VI platelet) | 0.52 | inactive
GP6 (glycoprotein VI platelet) | 0.35 | inactive
GP6 (glycoprotein VI platelet) | 1.79 | inactive
FCHSD2 (FCH and double SH3 domains 2) | -1.19 | inactive
FCHSD2 (FCH and double SH3 domains 2) | -0.68 | inactive
FCHSD2 (FCH and double SH3 domains 2) | -1.46 | inactive
FCHSD2 (FCH and double SH3 domains 2) | -0.53 | inactive
PTGIR (prostaglandin I2 receptor) | -1.43 | inactive
PTGIR (prostaglandin I2 receptor) | -0.63 | inactive
PTGIR (prostaglandin I2 receptor) | -1.18 | inactive
PTGIR (prostaglandin I2 receptor) | -1.16 | inactive
IZUMO4 (IZUMO family member 4) | 0.71 | inactive
IZUMO4 (IZUMO family member 4) | 0.78 | inactive
IZUMO4 (IZUMO family member 4) | 0.09 | inactive
IZUMO4 (IZUMO family member 4) | 0.77 | inactive
TRIM49C (tripartite motif containing 49C) | -0.38 | inactive
TRIM49C (tripartite motif containing 49C) | -0.85 | inactive
TRIM49C (tripartite motif containing 49C) | 0.3 | inactive
TRIM49C (tripartite motif containing 49C) | 1.78 | inactive
GP1BA (glycoprotein Ib platelet subunit alpha) | -1.37 | inactive
GP1BA (glycoprotein Ib platelet subunit alpha) | -0.03 | inactive
GP1BA (glycoprotein Ib platelet subunit alpha) | -0.9 | inactive
GP1BA (glycoprotein Ib platelet subunit alpha) | -0.42 | inactive
LIN7C (lin-7 cell polarity scaffold C) | -0.84 | inactive
LIN7C (lin-7 cell polarity scaffold C) | -0.23 | inactive
LIN7C (lin-7 cell polarity scaffold C) | -1.26 | inactive
LIN7C (lin-7 cell polarity scaffold C) | -0.26 | inactive
MRGPRX2 (MAS related GPR family member X2) | 0.89 | inactive
MRGPRX2 (MAS related GPR family member X2) | 2.16 | inactive
MRGPRX2 (MAS related GPR family member X2) | 0.81 | inactive
MRGPRX2 (MAS related GPR family member X2) | 1.87 | inactive
ZNF24 (zinc finger protein 24) | -1.72 | active
ZNF24 (zinc finger protein 24) | -1.44 | inactive
ZNF24 (zinc finger protein 24) | -1.57 | active
ZNF24 (zinc finger protein 24) | -0.76 | inactive
KDSR (3-ketodihydrosphingosine reductase) | 3.22 | active
KDSR (3-ketodihydrosphingosine reductase) | 0.91 | inactive
KDSR (3-ketodihydrosphingosine reductase) | 0.62 | inactive
KDSR (3-ketodihydrosphingosine reductase) | 0.06 | inactive
ENTPD1 (ectonucleoside triphosphate diphosphohydrolase 1) | 0.87 | inactive
ENTPD1 (ectonucleoside triphosphate diphosphohydrolase 1) | 1.9 | inactive
ENTPD1 (ectonucleoside triphosphate diphosphohydrolase 1) | 0.43 | inactive
ENTPD1 (ectonucleoside triphosphate diphosphohydrolase 1) | 1.39 | inactive
PPP1R14B (protein phosphatase 1 regulatory inhibitor subunit 14B) | -0.33 | inactive
PPP1R14B (protein phosphatase 1 regulatory inhibitor subunit 14B) | 0.55 | inactive
PPP1R14B (protein phosphatase 1 regulatory inhibitor subunit 14B) | 0.47 | inactive
PPP1R14B (protein phosphatase 1 regulatory inhibitor subunit 14B) | 0.76 | inactive
H4C14 (H4 clustered histone 14) | 3.6 | active
H4C14 (H4 clustered histone 14) | 5.55 | active
H4C14 (H4 clustered histone 14) | 0.1 | inactive
H4C14 (H4 clustered histone 14) | 0.58 | inactive

An excerpt from the list above:
Target gene | TNF reporter robust z-score | outcome
ATOH7 (atonal bHLH transcription factor 7) | -0.68 | inactive
ATOH7 (atonal bHLH transcription factor 7) | -0.2 | inactive
ATOH7 (atonal bHLH transcription factor 7) | -1.16 | inactive
ATOH7 (atonal bHLH transcription factor 7) | 0.86 | inactive
MET (MET proto-oncogene, receptor tyrosine kinase) | -0.54 | inactive
MET (MET proto-oncogene, receptor tyrosine kinase) | -0.28 | inactive
MET (MET proto-oncogene, receptor tyrosine kinase) | 0.68 | inactive
